Assay results reported in patent US20110269812A1, “NOVEL BENZYLIDENE-INDOLINONE AND THEIR MEDICAL AND DIAGNOSTIC USES” (Agency for Science, Technology and Research, priority 2008, published 2011).
Where two headings read alike, the source gives them in different places. Some of these results come from one statement about several compounds together.

Columns and labels:
[1] = test system: HCT116 (human colon cancer cell line); assay: Antiproliferative MTT assay, HCT116; format: cell-based; conditions: 72 h incubation, mean ± SD
Experimental: The antiproliferative activity of the compounds according to the invention was determined by the MTT assay on the following cell lines: MCF7 (human breast cancer cell line), HCT116 (human colon cancer cell line), and CCL186 (normal human diploid embryonic lung fibroblast). […] MCF7 and CCL186 cells were cultured in Eagle's Minimum Essential Medium (EMEM) with 1 mM sodium pyruvate, 1.5 g/L sodium bicarbonate, 2 mM L-glutamine supplemented with 10% FBS and 0.01% antibiotics. HCT116 cells were cultured in McCoy's 5A Medium with 2.2 g/L sodium bicarbonate supplemented with […] and 0.01% antibiotics. Cells were plated at the following densities: 10000 cells/well (MCF7), 4000 cells/well (HCT116), 5000 cells/well (CCL186). They were grown for 24 h in a 96-well plate, with 100 μl of corresponding medium in each well. The test compounds were prepared in DMSO and diluted to a series of concentrations with medium. Not more than 1% DMSO (final concentration) was present in each well. […] The latter was dissolved in DMSO (150 μl) and absorbance determined within 30 min at 590 nm on a microtitre plate reader. […]
where A is the absorbance of formazan measured at 590 nm in the test (Acells+test compound), control (Auntreated cells) or blank (Ablank) wells. Each concentration of test compound was evaluated on 3 separate occasions. […]

[2] = test system: MCF7 (human breast cancer cell line); assay: Antiproliferative MTT assay, MCF7; format: cell-based; conditions: 72 h incubation, mean ± SD
Experimental: The antiproliferative activity of the compounds according to the invention was determined by the MTT assay on the following cell lines: MCF7 (human breast cancer cell line), HCT116 (human colon cancer cell line), and CCL186 (normal human diploid embryonic lung fibroblast). […] MCF7 and CCL186 cells were cultured in Eagle's Minimum Essential Medium (EMEM) with 1 mM sodium pyruvate, 1.5 g/L sodium bicarbonate, 2 mM L-glutamine supplemented with 10% FBS and 0.01% antibiotics. HCT116 cells were cultured in McCoy's 5A Medium with 2.2 g/L sodium bicarbonate supplemented with […] and 0.01% antibiotics. Cells were plated at the following densities: 10000 cells/well (MCF7), 4000 cells/well (HCT116), 5000 cells/well (CCL186). They were grown for 24 h in a 96-well plate, with 100 μl of corresponding medium in each well. The test compounds were prepared in DMSO and diluted to a series of concentrations with medium. Not more than 1% DMSO (final concentration) was present in each well. The test compounds were incubated with the cells for 72 h, after which 100 μl MTT solution (0.5 mg/ml in 1× PBS) was added for 3 h and the cells lysed to release the formazan product. The latter was dissolved in DMSO (150 μl) and absorbance determined within 30 min at 590 nm on a microtitre plate reader. Cell survival was given by the expression:
Cell survival (%)=[(Acells+test compound−Ablank)/(Auntreated cells−Ablank)]×100
where A is the absorbance of formazan measured at 590 nm in the test (Acells+test compound), control (Auntreated cells) or blank (Ablank) wells. Each concentration of test compound was evaluated on 3 separate occasions. […] The MTT assay was also carried out on Hepa1c1c7 cells for the purpose of determining cytotoxicity of test compounds. The same procedure was adopted except that the incubation period of compound with cells was 48 h, instead of 72 h.
The compounds were initially screened at a fixed concentration of 10 μM on the human cancer cell lines HCT116 and MCF7 cells.

In the case of `COc1cccc(/C=C2/C(=O)Nc3cc(OC)ccc32)c1` [Compound 42, (E)-6-Methoxy-3-(3-methoxybenzylidene)indolin-2-one], the IC50 ([1]; n = 3, listed as compound 42, read-out: IC50 HCT-116) is reported as less than 10 µM and the IC50 ([2]; n = 3, listed as compound 42, read-out: IC50 MCF-7) is reported as less than 10 µM.

In the case of `COc1ccc2c(c1)NC(=O)/C2=C/c1ccc(OC)c(O)c1` [Compound 45, (E)-3-(3-Hydroxy-4-methoxybenzylidene)-6-methoxyindolin-2-one], the IC50 ([2]; n = 3, listed as compound 45, read-out: IC50 MCF-7) is reported as less than 10 µM.

With `COc1ccc2c(c1)NC(=O)/C2=C/c1cccc(C(F)(F)F)c1` [Compound 48, (E)-6-Methoxy-3-(3-(trifluoromethyl)benzylidene)indolin-2-one] the IC50 ([1]; n = 3, listed as compound 48, read-out: IC50 HCT-116) was less than 10 µM and the IC50 ([2]; n = 3, listed as compound 48, read-out: IC50 MCF-7) was less than 10 µM.

With `O=C1Nc2cc(Cl)ccc2/C1=C\c1cccc(C(F)(F)F)c1` [Compound 47, (E)-6-Chloro-3-(3-(trifluoromethyl)benzylidene)indolin-2-one] the IC50 ([2]; n = 3, listed as compound 47, read-out: IC50 MCF-7) was less than 10 µM.
